Measured values reported in PubChem BioAssay AID1259354 (Paczesny and Yang Labs, IUPUI and University of Michigan, 2018).
Out of some 78,000 compounds screened, about 1,800 (2.3%) were called active. Inconclusive means that the source gave no clear call. Such entries were picked first, then a sample of the others. Rule as the data show it: active = inhibition above about 30%; inconclusive = mostly about 10% to 28%; inactive = weaker than that.

Sequences of proteins named here, by UniProt entry; tags and fusion partners are left off. A change or cut given only in a name is not applied to a line headed by its entry.
UniProt Q01638: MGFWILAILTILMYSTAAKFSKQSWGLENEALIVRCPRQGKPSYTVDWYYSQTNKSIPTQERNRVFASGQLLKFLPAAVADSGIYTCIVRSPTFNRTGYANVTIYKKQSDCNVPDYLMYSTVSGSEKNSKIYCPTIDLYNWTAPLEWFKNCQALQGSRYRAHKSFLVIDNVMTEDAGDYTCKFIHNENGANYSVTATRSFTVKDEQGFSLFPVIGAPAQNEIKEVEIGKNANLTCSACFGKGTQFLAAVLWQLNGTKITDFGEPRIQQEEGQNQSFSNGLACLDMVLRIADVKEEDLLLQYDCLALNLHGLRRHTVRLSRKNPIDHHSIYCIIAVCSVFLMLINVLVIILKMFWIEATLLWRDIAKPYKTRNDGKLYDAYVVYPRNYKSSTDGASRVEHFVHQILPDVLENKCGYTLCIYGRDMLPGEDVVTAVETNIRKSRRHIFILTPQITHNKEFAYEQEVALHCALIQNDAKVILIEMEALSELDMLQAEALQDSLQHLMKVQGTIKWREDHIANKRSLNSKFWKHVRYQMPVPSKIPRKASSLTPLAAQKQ

Molecular target: Interleukin-1 receptor-like 1 (Homo sapiens) (UniProt Q01638)
Test: blocks human ST2 binding to IL-33, primary screen, biochemical, AlphaLISA (AID 1259354)
Conditions: AlphaLISA ST2-Fc/biotin-IL-33 interaction, 1 h; at 17 µM, stronger effect = higher value

SMILES | inhibition
CCc1nc(C)c(C(=O)N2CCC(c3[nH]ncc3-c3cccc(C)c3)CC2)o1 | inconclusive: 15%
CC(C)c1nccn1CCCNC(=O)c1c(O)cccc1O | inconclusive: 10%
CSc1c(CC(=O)NC(C)(C)CO)n(Cc2ccccc2)c2ccccc12 | inconclusive: 15%
O=C(CSc1nnnn1-c1ccccc1)Nc1ccc2c(c1)OCO2 | inactive
CCOc1ccc(/C=C2/SC(=O)NC2=O)cc1 | inconclusive: 19%
CCc1nccc(-c2nccn2-c2ccc(OC)nc2OC)n1 | inactive
CN1CCN(c2cc(N3CCN(S(=O)(=O)c4ccc(Cl)cc4)CC3)ccc2[N+](=O)[O-])CC1 | inconclusive: 12%
Fc1ccccc1-c1cnnc(N2CCN(CCOc3ccccc3)CC2)n1 | inconclusive: 13%
CC(=O)N1c2c(cc(Br)cc2S(=O)(=O)N2CCC3(CC2)OCCO3)CC1C (configuration not stated) | inactive
CC(=O)Nc1ccc(S(=O)(=O)N[C@H]2CO[C@H]3[C@@H]2OC[C@H]3OC(=O)Nc2ccc(C(C)=O)cc2)cc1 | inconclusive: 11%
CCOc1ccc(NC(=O)C(C)Sc2nnc(-c3ccc(OC)c(OC)c3)o2)cc1 (configuration not stated) | inactive
Cc1cc(N2CCOCC2)nc(-c2ccccc2O)n1 | inconclusive: 11%
COc1ccc(C2=N/C(=C\c3ccc4c(c3)OCO4)C(=O)O2)cc1[N+](=O)[O-] | inconclusive: 11%
CCOCCOC(=O)C1=C(C)NC2=C(C(=O)C(C(=O)OC)C(C)C2)C1c1ccc(O)cc1 (configuration not stated) | inactive
Cc1c(OCc2ccccc2)ccc2c3c(c(=O)oc12)CCC3 | inconclusive: 10%
COc1ccc(N(C(=O)c2ccc(C(C)(C)C)cc2)C2C=CS(=O)(=O)C2)cc1 (configuration not stated) | inactive
CN(Cc1ccccc1)[C@@H]1[C@H](O)[C@H](CO)O[C@@H]1CNC(=O)c1cccc(F)c1 | inconclusive: 14%
CCOc1ccc(C2CC(=O)C3=C(C2)Nc2ccccc2NC3c2cccc(OC)c2)cc1OC (configuration not stated) | inconclusive: 21%
CCN(CC)Cc1cnc2c(C(=O)Nc3ccc4c(c3)COC4)cnn2c1 | inconclusive: 15%
CCOc1ccc(-c2cnc(-c3ccncc3)[nH]2)cc1OCC | inconclusive: 22%
Cc1ccc(C2=NN(C(=O)c3cccnc3)C(c3ccccc3F)C2)cc1 (configuration not stated) | inconclusive: 12%
COc1cc(OC)c(C2CC(=O)Nc3c2ccc2ccccc32)cc1OC (configuration not stated) | inconclusive: 11%
Cc1ccccc1NC(=O)c1cc2cc(Cl)cc(Cl)c2oc1=N | inconclusive: 15%

SMILES | inhibition
CCC(=O)Nc1nc2nc(C(C)C)cc(=O)n2[nH]1 | inactive
C[C@H]1[C@@H]2[C@H]3OC(=O)[C@@H](C)[C@@H]3CC[C@@]2(C)CC[C@@H]1NC(=O)C1CCCCC1 | inactive
CCCN(CCC)c1ncc(C(=O)OC)c2ccccc12 | inactive
Cc1ccc(Cl)cc1N1CCN(S(=O)(=O)c2ccc(C(=O)N(C)C)s2)CC1 | inconclusive: 12%
CC(=O)N1CCC(N2C[C@@H]3OCC(=O)N(C)[C@@H]3C2)CC1 | inactive
Cc1oc(-c2ccc(Cl)cc2)nc1CN1CCCC(C(=O)N2CCOCC2)C1 (configuration not stated) | inconclusive: 11%
CC(C)C(=O)c1c(C(C)C)nn2ccccc12 | inconclusive: 13%
COc1ccc(C2=N/C(=C\c3c(F)cccc3Cl)C(=O)O2)cc1OC | inconclusive: 13%
N#CC1=C(N)SC(N)=C(C#N)C1c1ccc(Cl)c(Cl)c1 | inactive
N#Cc1c(NC(=O)c2cccc(S(=O)(=O)Nc3ccccc3)c2)sc2c1CCCC2 | inconclusive: 10%
COc1ccc(/C=N\OCC(=O)N2CC3(C)CC2CC(C)(C)C3)cc1OC (configuration not stated) | inconclusive: 24%
Cc1cc(N2CCN(C)CC2)nc2ccc(NC(=O)CCC(=O)NCc3ccco3)cc12 | inconclusive: 12%
Cc1[nH]c2ccc(CNc3ncnc4onc(C)c34)cc2c1C | inconclusive: 19%
COc1ccc2nc3oc(C(=O)N4CCN(C(=O)c5ccco5)CC4)cc3cc2c1 | inconclusive: 15%
Cc1cccc(N2CSC3=C(C#N)C(c4ccccc4F)CC(=O)N3C2)c1 (configuration not stated) | inconclusive: 19%
COc1ccc(NC(=O)Cn2cnc3sc4c(c3c2=O)CCCC4)cc1Cl | inconclusive: 18%
COc1ccccc1OCc1nc(C#N)c(NCCc2ccccc2)o1 | inconclusive: 23%
CCC1CCCCN1C/C=C/c1ccccc1[N+](=O)[O-] (configuration not stated) | inconclusive: 19%
CNC(=O)CN1CCOc2c(O)cc(-c3ccccc3C)cc2C1 | inconclusive: 16%
CC(NS(=O)(=O)c1ccc(F)cc1)c1ccccc1 (configuration not stated) | inconclusive: 17%
O=C(Cc1c(C(=O)O)[nH]c2ccc(Cl)cc12)NCCCN1CCCC1=O | inconclusive: 12%
COc1ccc(CNCc2cn(-c3cccc(F)c3)nc2-c2ccc(C)o2)cc1 | inconclusive: 22%
CCOc1cccc2cc(C(N)=O)c(=Nc3ccccc3F)oc12 | inconclusive: 20%

Reformatted: entries from further up
COc1ccccc1OCc1nc(C#N)c(NCCc2ccccc2)o1
  inhibition: inconclusive: 23%
CCC1CCCCN1C/C=C/c1ccccc1[N+](=O)[O-] (configuration not stated)
  inhibition: inconclusive: 19%
CNC(=O)CN1CCOc2c(O)cc(-c3ccccc3C)cc2C1
  inhibition: inconclusive: 16%

Retrieved by compound from the entries so far (2):
SMILES | inhibition
COc1ccc(/C=N\OCC(=O)N2CC3(C)CC2CC(C)(C)C3)cc1OC (configuration not stated) | inconclusive: 24%
CCC(=O)Nc1nc2nc(C(C)C)cc(=O)n2[nH]1 | inactive

(listing goes on)

SMILES | inhibition
NS(=O)(=O)c1ccc(NC(=O)CCCOc2ccc(Cl)cc2Cl)cc1 | inactive
Fc1cccc2c1NC(c1ccc(Br)cc1)C1CC=CC21 (configuration not stated) | active: 42%
Cc1cc(-c2c(-c3ccccc3)ncn2CCNc2ccccc2)n[nH]1 | inconclusive: 12%
CCCCN(CC)C(=O)c1cc2cc3cc(OC)ccc3nc2s1 | inconclusive: 21%
COc1ccc2cc3cc(C(=O)Nc4cccc([N+](=O)[O-])c4C)sc3nc2c1 | inconclusive: 29%
N#Cc1ccccc1S(=O)(=O)N[C@H]1CO[C@H]2[C@@H]1OC[C@@H]2Nc1nccc(-c2cccs2)n1 | inconclusive: 12%
CC1(C)CC(=O)C2=C(C1)Nc1ccc(C(=O)c3ccccc3)cc1NC2c1ccc(F)cc1 (configuration not stated) | inconclusive: 13%
CCOc1ccccc1N1C(=O)CC(Nc2ccc(N3CCOCC3)cc2)C1=O (configuration not stated) | active: 51%
COc1ccc(Br)cc1C(=O)Nc1ccc(F)c(Cl)c1 | inactive
Cc1cc(NC(=O)CN2C(=O)S/C(=C\c3ccc(F)cc3)C2=O)no1 | inconclusive: 17%
O=C(CCN1CCC(N2CCCC2=O)CC1)N1CCCc2ccccc21 | inconclusive: 14%
CCOc1cc(C)c2c(=O)c(Oc3ccccc3)c(C(F)(F)F)oc2c1 | inactive
CCOc1ccc(NC(=O)c2oc3ccccc3c2NC(=O)COc2ccccc2)cc1 | inactive
CNCC(=O)NCc1cnn(Cc2ccccc2)c1 | inactive
COc1ccc(O)c(C2Oc3ccccc3C3CC(c4cccs4)=NN32)c1 (configuration not stated) | inconclusive: 29%
O=C(COc1ccc(Cl)cc1)Nc1ccccn1 | inconclusive: 17%
COCCNC(=O)C[C@@H]1O[C@H](CNC(=O)NC2CCCCC2)[C@@H](O)[C@H]1O | inactive
O=c1oc2ccc(Cl)cc2nc1C=C(O)c1ccc([N+](=O)[O-])cc1 | inactive
O=C(c1cc(C(F)(F)F)[nH]n1)N1CC[C@H](CO)[C@H](O)C1 | inactive
Cc1cccc(Oc2coc3cc(OC(C)C(=O)OCC(C)C)ccc3c2=O)c1 (configuration not stated) | inconclusive: 11%
Cc1ccc(-n2nc3c(c2NC(=O)C2CCCCC2)CSC3)cc1 | inactive
CCOc1ccc(-c2nc3cc(N=Cc4cccc([N+](=O)[O-])c4O)ccc3o2)cc1 | inactive
O=C(CN1C(=O)S/C(=C\c2c(Cl)cccc2Cl)C1=O)Nc1cc([N+](=O)[O-])ccc1O | inconclusive: 17%

SMILES | inhibition
CC(C)C(=O)Nc1cccnc1-c1cccc2[nH]ccc12 | inconclusive: 10%
O=C(N[C@H]1CO[C@H]2[C@@H]1OC[C@@H]2Nc1nccc(-c2cccs2)n1)c1ccccc1 | inconclusive: 19%
Cc1sc(-c2nc3ccccc3n2C)cc1S(=O)(=O)O | inconclusive: 14%
O=C(Nc1cccc(Br)c1)C1CC1 | inconclusive: 11%
CN(CC(O)c1ccccc1)C(=O)c1cn(C(c2ccccc2)c2ccccc2)nn1 (configuration not stated) | inconclusive: 15%
CC1=CCC(C(=O)O)(C(=O)n2nc(C)cc2C)C(c2ccc(Br)cc2)C1 (configuration not stated) | inactive
CCN(C/C=C/c1ccccc1)C(=O)c1ccc(-n2cnnc2)cc1 | inactive
Cc1cccc(-c2nsc(SCC(=O)NCc3ccc4c(c3)OCO4)n2)c1 | inconclusive: 16%
COc1ccc(NC(=O)CSc2nc3c(c(=O)n2-c2ccc(C)cc2)SCC3)c(OC)c1 | inconclusive: 13%
COCc1noc(-c2ccc(N3CCCOCC3)nc2)n1 | inactive
CCn1cc(C(=O)N2CCCCCC2)c(=O)c2cc(S(=O)(=O)N3CCOCC3)ccc21 | inactive
O=C(O)c1ccc(S(=O)(=O)c2ccc3c(c2)C(=O)N(c2nccs2)C3=O)cc1 | inactive
COc1ccc(N2C(N)=C(C#N)C(c3ccsc3)C3=C2CCCC3=O)c(OC)c1 (configuration not stated) | inconclusive: 12%
CC(C)(C)c1cc(CCC(=O)N2CCNCC2)c(C(C)(C)C)cc1O | inconclusive: 17%
Cc1c(C(=O)N2CCCCC2)c(S(=O)(=O)Nc2ccc(S(N)(=O)=O)cc2)c(C)n1C | inactive
COc1ccc(-c2noc(CN3CCN(c4ccccc4)CC3)n2)cc1 | inconclusive: 15%
Cn1cc(SCC(=O)N2CCCCCC2)c2ccccc21 | inconclusive: 10%
COc1ccccc1OCC(=O)NCC1CCCN(Cc2ccc(SC)cc2)C1 (configuration not stated) | inactive
CC1CCN(C(=O)c2cccn3c(=O)c4c5c(sc4nc23)CCCC5)CC1 | inconclusive: 13%
COc1ccc(NC(=O)c2oc3ccccc3c2NC(=O)COc2ccccc2F)c(OC)c1 | inactive
Clc1cccc(N2CCN(C3CCCN(CC4CCCC4)C3)CC2)c1 (configuration not stated) | inconclusive: 22%
Cc1ccc(CN2CCN(C3CCCC3)CC2CCO)cc1 (configuration not stated) | inconclusive: 19%
Cc1cc(C)c2oc(-c3cccc(NC(=O)c4ccc([N+](=O)[O-])o4)c3C)nc2c1 | inconclusive: 21%
